# Results from PMC7819943, “Rice protein-binding microarrays: a tool to detect cis-acting elements near promoter regions in rice”.
# Sequences of proteins named here, by UniProt entry; tags and fusion partners are left off.
# UniProt Q0JBA9, entry or part of it: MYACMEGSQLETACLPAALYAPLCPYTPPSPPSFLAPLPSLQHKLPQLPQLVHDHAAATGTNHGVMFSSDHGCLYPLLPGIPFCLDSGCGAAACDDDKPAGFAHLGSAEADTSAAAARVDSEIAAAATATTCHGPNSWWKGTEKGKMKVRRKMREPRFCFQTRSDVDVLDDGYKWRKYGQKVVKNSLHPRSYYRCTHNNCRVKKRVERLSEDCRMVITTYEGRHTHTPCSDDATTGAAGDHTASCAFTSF
# This is one part of the list.
# Target: OsWRKY34 (Oryza sativa, UniProt Q0JBA9 1-250)
# Experiment: protein-binding microarray (RPBM); PBS, 2% BSA, 51.3 ng/ul salmon testes DNA, 50 uM zinc acetate, 200 nM TF, 25 C, 1 h; high values mean tight binding
# Settings: protein: recombinant; tags: N-terminal polyhistidine and DsRed monomer fusion (pET32a); label: CyDye5-dUTP incorporated in the synthesized complementary strand; 3' TTTTT single-stranded linker to array surface; dsDNA, one strand shown
# Method in brief: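 Transcription factors were made in E. coli BL21-CodonPlus as N-terminal fusions to a polyhistidine tag and DsRed, then purified on Ni–NTA. After primer extension with Cy5-dUTP and blocking with 2% BSA, a custom Agilent array was exposed for 1 h at 25 °C to 200 nM protein in PBS, 2% BSA, salmon testes DNA and 50 µM zinc acetate. Washed arrays were scanned on an Axon 4000B, and the binding signal is per-feature fluorescence intensity in arbitrary units.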
row,Sequence,binding signal
1,TCTCTTCTCCTTCCATTTTTCTTGTGCACTTCTCTTTCCCCGGAGTCACCTAGTGCAG,8450 fluorescence intensity (a.u.)
2,TTAATACTTGCTTTATTGTGCAGAGGTGGGCTGTTGACATCGGAGTCACCTAGTGCAG,13600 fluorescence intensity (a.u.)
3,ATCCTGTATCGTCCAGAATGCTTCTTCCATCCTAATCACCCGGAGTCACCTAGTGCAG,9220 fluorescence intensity (a.u.)
4,GCGTGGGTTCAAATCCCACAGCTGTCATAATTTTTCTTCCCGGAGTCACCTAGTGCAG,8270 fluorescence intensity (a.u.)
5,GAGGACAACAGACGGTCAAGATCTTCCCAACATATCCCCACGGAGTCACCTAGTGCAG,8500 fluorescence intensity (a.u.)
6,TCCTCTCCCGCCTCGCCCCGTCGACTTCCTCCCCAACACGCGGAGTCACCTAGTGCAG,10800 fluorescence intensity (a.u.)
7,ATTTGTTCTGCAATCTACATATGGTTCTTGTATTTCATTTCGGAGTCACCTAGTGCAG,12100 fluorescence intensity (a.u.)
8,CCGACTGTCTGCTGCTTCACATGTGGTTGTGTTTGCAACCCGGAGTCACCTAGTGCAG,8390 fluorescence intensity (a.u.)
9,GCCACACACACAATTACTACTACTTCTACGTACATCATCACGGAGTCACCTAGTGCAG,8330 fluorescence intensity (a.u.)
10,CCACCACCTCACATAATTTCCGTCCACACCTTTCGAGGCTCGGAGTCACCTAGTGCAG,9090 fluorescence intensity (a.u.)
11,AAGGGCTCGATGATTCTTCGTTTTGGTAAGCTACTCCTATCGGAGTCACCTAGTGCAG,8080 fluorescence intensity (a.u.)
12,CGCTTCTTTCTACTGTGTGTCTGTACTCTTGTGTGTTCCACGGAGTCACCTAGTGCAG,13100 fluorescence intensity (a.u.)
13,TCTCATGAACTTGGGCCGAGCTTGTGACATGTCCCGTCTTCGGAGTCACCTAGTGCAG,9470 fluorescence intensity (a.u.)
14,ATTGTTTGGGGTACTTTTTGCATCTGGTTCCCTTGCCGCCCGGAGTCACCTAGTGCAG,8900 fluorescence intensity (a.u.)
15,GCTATTTTCTTGCCCATGATGATCTATTAATGCTGATTCTCGGAGTCACCTAGTGCAG,9730 fluorescence intensity (a.u.)
16,CATACCTTCCGTATTAGTAGAAGGTACTAAAATTGACATTCGGAGTCACCTAGTGCAG,10800 fluorescence intensity (a.u.)
17,GCGGATTTCCTTTCTAAACGTGCCAACGATGTGTTCTTGTCGGAGTCACCTAGTGCAG,8250 fluorescence intensity (a.u.)
18,GGCGTAGTTCAGTCTCTGGCTCCTTCGGCAACGACCTCAACGGAGTCACCTAGTGCAG,9070 fluorescence intensity (a.u.)
19,ACCTCTTTTGACTCGTTCAATTCCTTTTCTTTTTTTGGCACGGAGTCACCTAGTGCAG,8680 fluorescence intensity (a.u.)
20,GGATTACTAGTAGTTTTCTTGTTCTTTTCTTCATGTGCGTCGGAGTCACCTAGTGCAG,13400 fluorescence intensity (a.u.)
21,AAACTTTCTTACTGATGATTTAGTGCTTAGAGCTTCTTCACGGAGTCACCTAGTGCAG,8750 fluorescence intensity (a.u.)
22,CTCCGCCGCCGTCCCGCCCGCCACCTCCCCGCACCGCGGCCGGAGTCACCTAGTGCAG,8890 fluorescence intensity (a.u.)
23,CGATACACCGGCGCTCTCCGGTCCCATCACCATCGCCATGCGGAGTCACCTAGTGCAG,8800 fluorescence intensity (a.u.)
24,TAGTTGTTATCTTCGCTTTGGGTGGTTGGTAGAAGGGACCCGGAGTCACCTAGTGCAG,10100 fluorescence intensity (a.u.)
25,TTCTTTTTTTGTGGGGAGAGGCGGGCTGTTTTTTTCTTGCCGGAGTCACCTAGTGCAG,15900 fluorescence intensity (a.u.)
26,CCTCAGGTCTCTATAAGCTATAAAGGGTTTTGGTTGGATACGGAGTCACCTAGTGCAG,8500 fluorescence intensity (a.u.)
27,TTCCCAGTCTTTGGACCGTGGTTCAGACCTTAGCTTCACTCGGAGTCACCTAGTGCAG,9410 fluorescence intensity (a.u.)

# Copied from the listing for reference:
row,Sequence,binding signal
1,TCTCTTCTCCTTCCATTTTTCTTGTGCACTTCTCTTTCCCCGGAGTCACCTAGTGCAG,8450 fluorescence intensity (a.u.)
2,TTAATACTTGCTTTATTGTGCAGAGGTGGGCTGTTGACATCGGAGTCACCTAGTGCAG,13600 fluorescence intensity (a.u.)

# Later entries.

row,Sequence,binding signal
1,CGCCACTGCCTATTCTATCTATATCGTGTGCACTTGAGGTCGGAGTCACCTAGTGCAG,8280 fluorescence intensity (a.u.)
2,TACTCAATTTTTTTTTCTGCCTTTTACCATCTCTTTAATACGGAGTCACCTAGTGCAG,8110 fluorescence intensity (a.u.)
3,TAATATTGGTACGCGTCGTCTCCTTCCTTCGTCTCGCTCGCGGAGTCACCTAGTGCAG,12000 fluorescence intensity (a.u.)
4,GTGACCGTTCCCTGCACCCTGTCTACAAGAGCCATACCTCCGGAGTCACCTAGTGCAG,8250 fluorescence intensity (a.u.)
5,TTGTCAGTTTTCTCTAAACCACAGTAATTAGTCAGTTTCACGGAGTCACCTAGTGCAG,8420 fluorescence intensity (a.u.)
6,ATTTCGGCGACACGAGGACACGCCGATTTCCCCGCGGACCCGGAGTCACCTAGTGCAG,10300 fluorescence intensity (a.u.)
7,TTTTATCTCCTATTATCTCACCTGCTCACTTTTTTATCCACGGAGTCACCTAGTGCAG,8470 fluorescence intensity (a.u.)
8,TATTTAGTGCTTTTTCACTGGCGCTTAATCTGTTAGTTACCGGAGTCACCTAGTGCAG,9490 fluorescence intensity (a.u.)
9,CTCACTTCTTTACCTTTTCCTTTCTTTCAACTATTTTCTCCGGAGTCACCTAGTGCAG,9990 fluorescence intensity (a.u.)
10,ATGACTTTTTTTTCCTATTCCTTCGTTTTAAAATCCACATCGGAGTCACCTAGTGCAG,9120 fluorescence intensity (a.u.)
11,ATTCTATCCATCATAATCATTTGAATAATTATTTGGTATTCGGAGTCACCTAGTGCAG,8630 fluorescence intensity (a.u.)
12,AGGGGTGCTTGAGAAAAACTAACTTCGTTGACCTGAAGAACGGAGTCACCTAGTGCAG,11600 fluorescence intensity (a.u.)
13,TGACATTTGCCATCCGTACCGTGATCCTCCTTTTACTGCTCGGAGTCACCTAGTGCAG,11300 fluorescence intensity (a.u.)
14,ACCAAATTTAACTTACATGCATGATATCTTTATTTATTATCGGAGTCACCTAGTGCAG,8940 fluorescence intensity (a.u.)
15,GGCAGCCACTATTTGTTGGTCATTATGGCTTTGCAGGAATCGGAGTCACCTAGTGCAG,9080 fluorescence intensity (a.u.)
16,GGTCCATCCATCCTGCCGTCTTCTACGTACTTCGTTGGATCGGAGTCACCTAGTGCAG,12900 fluorescence intensity (a.u.)
17,TGTTGTTCTAGTGTTTAGCGTGCGTTCCAGTTAATTAATCCGGAGTCACCTAGTGCAG,9010 fluorescence intensity (a.u.)
18,TTTAGTCTATTGTTGAGATGTACATGTTTTATATTTTATACGGAGTCACCTAGTGCAG,9430 fluorescence intensity (a.u.)
19,GGCCACTACTTCTCTGGGCTCTGGGCCTCTGGCTGCTCATCGGAGTCACCTAGTGCAG,9160 fluorescence intensity (a.u.)
20,CTCACCGCACCCGTGTCCTCCTTCCACACCGCAATCTCGCCGGAGTCACCTAGTGCAG,9570 fluorescence intensity (a.u.)
21,TACCTACGATTAGATTTTGCTGGCCCGTGCATGCCTCCTACGGAGTCACCTAGTGCAG,8750 fluorescence intensity (a.u.)
22,TATGTGTTTTTGTTTATTTTTTTGTTCGTCTAACATCAAACGGAGTCACCTAGTGCAG,11100 fluorescence intensity (a.u.)
23,AGCAGGTCATAAAGAAATCTTGAACTACGTAAGCACTGTACGGAGTCACCTAGTGCAG,8170 fluorescence intensity (a.u.)
24,TCCATTCATTCACTTCATGCATTCATTTCATACTCTATTACGGAGTCACCTAGTGCAG,16100 fluorescence intensity (a.u.)
25,AAACTCCCAACGCCTCGCTCATCTCGATCTCCATCTCCAACGGAGTCACCTAGTGCAG,8470 fluorescence intensity (a.u.)
26,TATGTTATCATTTTCTTTCGATTTACTTATAACTATTTATCGGAGTCACCTAGTGCAG,8600 fluorescence intensity (a.u.)
27,TCTGGCCCAAGCCCAGGTTGTGGCCTGGGGAGGGGAAGTGCGGAGTCACCTAGTGCAG,8170 fluorescence intensity (a.u.)

# Two records picked at random from the list so far:
row,Sequence,binding signal
22,TATGTGTTTTTGTTTATTTTTTTGTTCGTCTAACATCAAACGGAGTCACCTAGTGCAG,11100 fluorescence intensity (a.u.)
25,TTCTTTTTTTGTGGGGAGAGGCGGGCTGTTTTTTTCTTGCCGGAGTCACCTAGTGCAG,15900 fluorescence intensity (a.u.)
